The values that follow are results of earlier work, collected in US5721229A, “Soluble forms of cephalosporins and treatment of animals” (Veterinary Pharmacy Corporation, priority 1995, dated 1998).

For data set [1] the following is noted: readily dissolved form; cited from earlier work.
For data set [2] the following is noted: cited from earlier work.
For data set [3] the following is noted: water-soluble form; cited from earlier work.

On to `CC1=C(C(=O)O)N2C(=O)[C@@H](NC(=O)[C@H](N)c3ccccc3)[C@H]2SC1` [cephalexin monohydrate], for which, in data set [1], the “Neutrally charged fraction of dissolved form” value is 50% and the “Positively charged fraction of dissolved form” value is given as 50%.
As for `CC1=C(C(=O)O)N2C(=O)[C@@H](NC(=O)[C@H](N)c3ccccc3)[C@H]2SC1` [cephalexin, α-aminobenzyl-3-desacetoxycephalosporin], in data set [2], the “Absorption by the body when ingested” value is 90%.
On to `CC1=C(C(=O)O)N2C(=O)[C@@H](NC(=O)[C@H](N)c3ccccc3)[C@H]2SC1` [sodium cephalexin], for which, in data set [3], the Stability time entry is “less than 6 hours”.
